Test results: patent US20220348659A1 (TWIST BIOSCIENCE, published 2022)
These are yes or no findings as the source states them, for the method shown. Some entries that bind do so weakly or less than the wild type.

Molecular target: CD3 on human CD8+ T cells
Experiment: flow cytometry on primary CD8 T cells, antibody at 100 nM; bar = MFI APC+ subset; title 'TB252 binding primary CD8T'

B1: CD3-252-22 (VHH)
VHH: EVQLVESGGGLVQPGGSLRLSCAASGNIFTRHIMGWFRQAPGKEREFVAAITNGGSTKYADSVKGRFTISADNSKNTAYLQMNSLKPEDTAVYYCARQDYYDSSGHIRYWGQGTLVTVSS
notes: also called CD3-252-022
With B1 the binding was “binds”.
